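Tsc2-/- p53-/- mouse embryonic fibroblasts treated for 24 h; imaging measures the share of cells stained for phosphorylated rpS6 (Ser235/236), a readout of mTORC1 activity.
Each compound was titrated over about 0.0024 to 38 µM.
The value is a fitted half-maximal potency (AC50) for reducing phospho-S6 staining, and a lower value means a more potent inhibitor.
Calls follow the curve class and the fitted potency: scores of 40 to 100 are active, 1 to 39 inconclusive and 0 inactive, so weak partial or top-dose-only curves are inconclusive.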

Values are in µM.
All entries here are filed as inconclusive.
Only part of the assay is shown, chiefly results filed as inconclusive.
Potencies fitted to partial, single-point or poorly fitting curves are rough.
Activity scores are not listed here.

| # | compound | potency (µM) | curve |
|---|---|---|---|
| 1 | `OCCN1CCN(CCCN2c3ccccc3Sc3ccc(C(F)(F)F)cc32)CC1` | 23.28 | falling, single point |
| 2 | `NCCCCNCCCN` | 26.12 | falling, single point |
| 3 | `COc1ccc2c(c1)/C(=C/c1cnc[nH]1)C(=O)N2` | 26.12 | falling, partial curve, poor fit |
| 4 | `Cc1c2ccncc2c(C)c2c1[nH]c1ccccc12` | 26.12 | falling, single point |
| 5 | `CN(C)C(=O)C(CCN1CCC(O)(c2ccc(Cl)cc2)CC1)(c1ccccc1)c1ccccc1` | 18.49 | falling, single point |
| 6 | `CN1CCc2cc(O)cc3c2[C@H]1Cc1ccc(O)c(O)c1-3` | 23.28 | falling, single point |
| 7 | `CCCN1CCc2cc(O)cc3c2[C@H]1Cc1ccc(O)c(O)c1-3` | 23.28 | falling, single point |
| 8 | `CCCCCCC(C)(C)c1ccc([C@@H]2C[C@H](O)CC[C@H]2CCCO)c(O)c1` | 26.12 | falling, single point |
| 9 | `Cc1ccc(S(=O)(=O)N[C@@H](Cc2ccccc2)C(=O)CCl)cc1` | 23.28 | falling, single point |
| 10 | `CCCCCCCCCCCCCC(=O)O[C@@H]1[C@@H](C)[C@@]2(O)[C@@H](C=C(CO)C[C@@]3(O)C(=O)C(C)=C[C@@H]23)C2C(C)(C)[C@@]21OC(C)=O` (stereo not given in full) | 26.12 | falling, single point |
| 11 | `C=CCN1CC[C@]23c4c5ccc(O)c4O[C@@H]2/C(=N/N=C2\CC[C@@]4(O)C6Cc7ccc(O)c8c7[C@@]4(CCN6CC=C)[C@@H]2O8)CC[C@@]3(O)C1C5` | 26.12 | falling, single point |

2 of the entries, repeated:

{"compound": "C=CCN1CC[C@]23c4c5ccc(O)c4O[C@@H]2/C(=N/N=C2\\CC[C@@]4(O)C6Cc7ccc(O)c8c7[C@@]4(CCN6CC=C)[C@@H]2O8)CC[C@@]3(O)C1C5", "potency (µM)": "26.12", "curve": "falling, single point"}
{"compound": "OCCN1CCN(CCCN2c3ccccc3Sc3ccc(C(F)(F)F)cc32)CC1", "potency (µM)": "23.28", "curve": "falling, single point"}

The results are deposited in PubChem (AID2666; NCATS, 2010).